# Read-outs that look alike come from different tables or passages of the source. Results are given in words; binding and its absence hold for the method and conditions named. Some results given as binding are weak or reduced against the parent protein; the word gives no strength. For some of these results: Sequences can lack the tags named with a protein.
# The chains behind the UniProt entries cited, without tags or fusion partners.
# UniProt Q8RWY3: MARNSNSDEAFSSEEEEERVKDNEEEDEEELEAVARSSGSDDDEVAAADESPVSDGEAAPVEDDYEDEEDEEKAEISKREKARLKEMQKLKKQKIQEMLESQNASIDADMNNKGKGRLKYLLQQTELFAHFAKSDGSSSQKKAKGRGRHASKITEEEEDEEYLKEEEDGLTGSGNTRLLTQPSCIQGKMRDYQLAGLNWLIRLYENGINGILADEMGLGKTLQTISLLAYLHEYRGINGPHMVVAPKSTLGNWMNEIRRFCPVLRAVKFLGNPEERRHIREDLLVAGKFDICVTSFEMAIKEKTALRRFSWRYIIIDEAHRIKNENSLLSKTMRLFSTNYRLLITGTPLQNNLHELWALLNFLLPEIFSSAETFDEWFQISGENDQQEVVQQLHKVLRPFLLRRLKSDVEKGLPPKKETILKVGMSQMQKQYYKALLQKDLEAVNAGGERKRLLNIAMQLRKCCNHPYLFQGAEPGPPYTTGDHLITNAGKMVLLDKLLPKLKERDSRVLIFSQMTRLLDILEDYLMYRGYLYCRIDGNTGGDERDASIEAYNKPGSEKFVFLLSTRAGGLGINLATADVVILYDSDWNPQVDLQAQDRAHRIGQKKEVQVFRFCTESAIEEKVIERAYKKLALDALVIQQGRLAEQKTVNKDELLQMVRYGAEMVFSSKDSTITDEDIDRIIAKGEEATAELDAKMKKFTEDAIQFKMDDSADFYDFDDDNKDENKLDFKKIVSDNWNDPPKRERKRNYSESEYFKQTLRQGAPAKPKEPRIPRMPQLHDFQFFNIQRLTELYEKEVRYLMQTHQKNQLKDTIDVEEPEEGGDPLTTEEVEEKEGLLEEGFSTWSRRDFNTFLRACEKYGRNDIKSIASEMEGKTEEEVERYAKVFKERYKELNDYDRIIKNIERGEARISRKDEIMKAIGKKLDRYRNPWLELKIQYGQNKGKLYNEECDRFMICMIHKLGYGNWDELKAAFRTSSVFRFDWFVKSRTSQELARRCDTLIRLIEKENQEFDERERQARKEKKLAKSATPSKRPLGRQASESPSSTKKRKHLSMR
# T1: AL2 (recombinant, pull-down) (Arabidopsis thaliana) (UniProt Q9SRM4)
# T1 sequence: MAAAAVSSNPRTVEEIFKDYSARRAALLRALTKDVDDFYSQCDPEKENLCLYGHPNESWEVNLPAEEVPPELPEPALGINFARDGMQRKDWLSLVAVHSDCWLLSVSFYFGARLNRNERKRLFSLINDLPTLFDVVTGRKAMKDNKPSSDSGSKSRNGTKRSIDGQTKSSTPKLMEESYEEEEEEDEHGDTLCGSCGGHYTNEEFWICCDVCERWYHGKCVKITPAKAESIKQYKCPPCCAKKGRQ
# B1: SNL2 (HDAC accessory subunit) (protein, UniProt Q9LFQ3 1-1367)
# chain: MKRIRDDIYATGSQFKRPLGSSRGESYEQSPITGGGSIGEGGINTQKLTTDDALTYLKEVKEMFQDQRDKYDMFLEVMKDFKAQKTDTSGVISRVKELFKGHNNLIFGFNTFLPKGFEITLDDVEAPSKKTVEFEEAISFVNKIKTRFQHNELVYKSFLEILNMYRKDNKDITEVYNEVSTLFEDHSDLLEEFTRFLPDSLAPHTEAQLLRSQAQRYDDRGSGPPLVRRMFMEKDRRRERTVASRGDRDHSVDRSDLNDDKSMVKMHRDQRKRVDKDNRERRSRDLEDGEAEQDNLQHFSEKRKSSRRMEGFEAYSGPASHSEKNNLKSMYNQAFLFCEKVKERLCSQDDYQAFLKCLNMFSNGIIQRKDLQNLVSDVLGKFPDLMDEFNQFFERCESIDGFQHLAGVMSKKSLGSEENLSRSVKGEEKDREHKRDVEAAKEKERSKDKYMGKSIQELDLSDCERCTPSYRLLPPDYPIPSVRHRQKSGAAVLNDHWVSVTSGSEDYSFKHMRRNQYEESLFRCEDDRFELDMLLESVGSAAKSAEELLNIIIDKKISFEGSFRIEDHFTALNLRCIERLYGDHGLDVTDLIRKNPAAALPVILTRLKQKQDEWTKCREGFNVVWADVYAKNHYKSLDHRSFYFKQQDSKNLSAKALVSEVKDLKEKSQKEDDVVLSISAGYRQPIIPHLEYDYLDRAIHEDLFKLVQFSCEEICSTKEQTGKVLKLWANFLELMLDVAPRAKGSDSVEDVVETQHQRAFTSGEANESSDAISLVSRQLKFATNGDVHASSGVSKHGETGLLNRDSSGKENLKDGDLANKDVATCAEKPQKDQEIGNGAAKRSGDVDERVATSSSSFPSGVENNNGKVGSRDSSGSRGILSKPSEAIDKVDSIQHTQGVDIGRIIVLGNGLQSDTSKANSNYDESGGPSKIEKEEGELSPVGDSEDNFVVYEDRELKATAKTEHSVEAEGENDEDADDEDGDDASEAGEDASGTESIGDECSQDDNGVEEEGEHDEIDGKAESEGEAEGMESHLIEDKGLFPSSERVLLSVKPLSKHIAAAALVDEKKKDSRVFYGNDDFYVLFRLHRVSAIDSYDLLSHILYERILSAKTYCSGSEMKLRNTKDTCSPDPYARFMNALFSLLNGSAENSKFEDECRAIIGNQSYVLFTLEKLIYKLVKQLQAVVADDMDNKLLQLYEYENSRRPGRVFDSVYYENARILLHEENIYRLECSSSPSRLSIQLMDNIIEKPDAYAVSMEPTFTSYLQNEFLSNSSGKKELQDIVLQRNMRGYNGLDDLAVACKAMEGVQVINGLECKMSCSSYKISYVLDTEDFFHRKKKQKKSNNLSLAKLSQNRIARFHKFLSASR
# B2: FLD (LSD-like histone demethylase) (protein, UniProt Q9CAE3 1-789)
# chain: MVSFSAPKKRRRGRSQRSMSSLNSLPVPNVGLLPGNSNFVSSSASSSGRFNVEVVNGSNQTVKSYPGIGDEIITINKEATTEALLALTAGFPADSLTEEEIEFGVVPIVGGIEQVNYILIRNHIISKWRENISSWVTKEMFLNSIPKHCSSLLDSAYNYLVTHGYINFGIAQAIKDKFPAQSSKSSVIIVGAGLSGLAAARQLMRFGFKVTVLEGRKRPGGRVYTKKMEANRVGAAADLGGSVLTGTLGNPLGIIARQLGSSLYKVRDKCPLYRVDGKPVDPDVDIKVEVAFNQLLDKASKLRQLMGDVSMDVSLGAALETFRQVSGNDVATEEMGLFNWHLANLEYANAGLVSKLSLAFWDQDDPYDMGGDHCFLPGGNGRLVQALAENVPILYEKTVQTIRYGSNGVKVTAGNQVYEGDMVLCTVPLGVLKNGSIKFVPELPQRKLDCIKRLGFGLLNKVAMLFPYVFWSTDLDTFGHLTEDPNYRGEFFLFYSYAPVAGGALLIALVAGEAAHKFETMPPTDAVTRVLHILRGIYEPQGINVPDPLQTVCTRWGGDPFSLGSYSNVAVGASGDDYDILAESVGDGRLFFAGEATTRRYPATMHGAFVTGLREAANMAQSAKARGIRKRIDRNPSRNAHSCAILLADLFRDPDLEFGSFCIIFSRRNPDPKSPAILRVTLSEPRKRNEDPKADQHSNKILFQQLQSHFNQQQQIQVYTLLTRQQALDLREVRGGDEKRLYYLCETLGVKLVGRKGLGVGADSVIASIKAERTGRKLPSSSTSGTKSG
# B3: SDG26 (histone methyltransferase, subunit of the AuPC complex) (protein, UniProt Q84WW6 1-492)
# chain: MQFSCDPDQEGDELPQYEHIYQNDFSYRKHKKQKEEDISICECKFDFGDPDSACGERCLNVITNTECTPGYCPCGVYCKNQKFQKCEYAKTKLIKCEGRGWGLVALEEIKAGQFIMEYCGEVISWKEAKKRAQTYETHGVKDAYIISLNASEAIDATKKGSLARFINHSCRPNCETRKWNVLGEVRVGIFAKESISPRTELAYDYNFEWYGGAKVRCLCGAVACSGFLGAKSRGFQEDTYVWEDGDDRYSVDKIPVYDSAEDELTSEPSKNGESNTNEEKEKDISTENHLESTALNIQQQSDSTPTPMEEDVVTETVKTETSEDMKLLSQNSQEDSSPKTAIVSRVHGNISKIKSESLPKKRGRPFSGGKTKNVAQKHVDIANVVQLLATKEAQDEVLKYEEVKKEAAVRLSSLYDEIRPAIEEHERDSQDSVATSVAEKWIQASCNKLKAEFDLYSSVIKNIASTPIKPQDTKTKVAEAGNEDHIKLLEAK
# What was measured:
# [1] = target: T1, AL2 (recombinant, pull-down) (Arabidopsis thaliana); test: pull-down
# [2] = target: T1, AL2 (recombinant, pull-down) (Arabidopsis thaliana); test: pull-down; remark: listed apart in the source
Molecule,binding [1],binding [2]
"CHR11 (recombinant, pull-down) (from UniProt Q8RWY3 1-1056)",no binding,–
B1,–,binds
B2,–,binds
B3,–,binds
